The supplement of paper PMC12823440, “Inhibitors supercharge kinase turnover through native proteolytic circuits” (Nature, 2025)
This is one part of the list. The calls rarely recur for the same compound in another form.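 Kinases, fused to nanoluciferase, were expressed in K562 cells; luminescence was measured every 4 h from 2 to 18 h as percent of control (DMSO = 100%, positive control = 0%). A time point is decreased if signal falls significantly (2 sigma). Hits were called by the authors by a rule that is not shown; the count of time points alone does not decide it.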

Chains of the proteins cited; added tags and fusions are not shown. Lines headed by an entry give the natural chain unless they say otherwise; changes in a name come on top.
UniProt Q15208: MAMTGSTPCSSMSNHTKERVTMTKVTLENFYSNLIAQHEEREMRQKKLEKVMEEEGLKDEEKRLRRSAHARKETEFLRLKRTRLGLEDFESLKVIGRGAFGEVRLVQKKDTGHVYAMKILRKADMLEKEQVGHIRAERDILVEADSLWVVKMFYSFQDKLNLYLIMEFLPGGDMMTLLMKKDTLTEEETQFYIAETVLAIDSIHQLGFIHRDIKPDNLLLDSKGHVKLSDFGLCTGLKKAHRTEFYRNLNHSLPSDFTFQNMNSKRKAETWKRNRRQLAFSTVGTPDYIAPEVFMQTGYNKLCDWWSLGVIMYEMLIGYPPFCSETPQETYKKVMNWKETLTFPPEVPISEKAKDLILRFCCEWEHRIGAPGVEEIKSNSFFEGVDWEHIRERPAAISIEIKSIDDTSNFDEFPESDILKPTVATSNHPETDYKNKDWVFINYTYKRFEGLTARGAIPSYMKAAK

molecular target: STK38 (UniProt Q15208); experiment: kinase-Nluc reporter destabilization hit call (1 = scored as downregulated) (binary); higher = compound decreases kinase abundance; conditions: K562; 2-18 h

kinase-Nluc reporter destabilization hit call, inactive:
O=C(Nc1ccccc1C(=O)NC1CCCCNC1=O)c1cc2ccccc2s1 (stereo unspecified) (10 µM) 0, CCOc1cc(=O)[nH]cc1-c1ccc(CC(=O)Nc2cc(C(C)(C)C(F)(F)F)on2)c(F)c1 (10 µM) 0, Cn1cnc2c(F)c(Nc3ccc(Br)cc3F)c(C(=O)NOCCO)cc21 [Binimetinib] (10 µM) 0, Cc1ccc(NC(=O)N2CCN(c3nc(N)nc4sc(-c5cccnc5)nc34)CC2)cc1 [PI4KIII beta inhibitor 3] (10 µM) 0, CC(C1CC1)n1cnc2c(NCc3cccc(C(F)(F)F)c3)nc(NCCN(C)C)nc21 (stereo unspecified) (10 µM) 0, CCn1c(N)c(C(=O)NC)c(=O)c2ccc(C#CC(C)(O)COC)nc21 (stereo unspecified) (10 µM) 0, N#Cc1cc(N2CCC(C(=O)N3N=CC[C@H]3c3cc(F)cc(F)c3)CC2)ncn1 (10 µM) 0, CN1CCN(Cc2ccc(-c3cn(C4CCC(O)CC4)c4nc(NCCC5CC5)ncc34)cc2)CC1 (stereo unspecified) (2.5 µM) 0, COc1ccc(Cl)cc1N(CC(=O)Nc1ccc2c(c1)OCO2)S(=O)(=O)c1ccccc1 (2.5 µM) 0, CS[C@@]1(C(=O)Nc2ccc3[nH]nc(-c4ccc(OC(C)C)nc4)c3c2)CCN(CC(=O)N2CC=C(c3ccc(-c4ncn(C)n4)cc3)CC2)C1 (2.5 µM) 0, CCc1cc(Nc2nccc(-c3c(-c4ccc(OC)c(C(=O)Nc5c(F)cccc5F)c4)nc4ccccn34)n2)c(OC)cc1N1CCC(N2CCN(S(C)(=O)=O)CC2)CC1 (2.5 µM) 0
